# According to PMC7819943, “Rice protein-binding microarrays: a tool to detect cis-acting elements near promoter regions in rice”:
# Amino acid sequences for entries named in this document (tags omitted).
# UniProt Q0JBA9, entry or part of it: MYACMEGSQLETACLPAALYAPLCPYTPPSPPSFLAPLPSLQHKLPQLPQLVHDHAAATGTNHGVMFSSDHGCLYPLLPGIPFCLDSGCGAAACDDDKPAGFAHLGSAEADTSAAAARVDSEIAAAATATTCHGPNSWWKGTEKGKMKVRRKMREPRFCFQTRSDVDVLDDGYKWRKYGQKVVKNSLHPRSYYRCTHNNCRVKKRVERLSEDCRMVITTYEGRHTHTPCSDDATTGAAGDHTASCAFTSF
# The list shows a part of the results.
# Target: OsWRKY34 (Oryza sativa, UniProt Q0JBA9 1-250)
# Assay: protein-binding microarray (RPBM); PBS, 2% BSA, 51.3 ng/ul salmon testes DNA, 50 uM zinc acetate, 200 nM TF, 25 C, 1 h; high values mean tight binding
# Details: protein: recombinant; tags: N-terminal polyhistidine and DsRed monomer fusion (pET32a); label: CyDye5-dUTP incorporated in the synthesized complementary strand; 3' TTTTT single-stranded linker to array surface; dsDNA, one strand shown
# Summary of the method: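 The binding signal is fluorescence intensity per array feature (arbitrary units). Readings came from an Axon 4000B scanner after a washed, 2% BSA-blocked, double-stranded custom Agilent array had been incubated for 1 h at 25 °C with 200 nM protein and 50 µM zinc acetate. The protein was a Ni–NTA-purified transcription factor fused N-terminally to polyhistidine and DsRed, expressed in E. coli BL21-CodonPlus.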
row,Sequence,binding signal
1,CTCCTCGCGCCCTCGCTGCGTCGCCGCCGTTGCCCGCCCTCGGAGTCACCTAGTGCAG,9960 fluorescence intensity (a.u.)
2,CTTCGCGCTGGTCTTCTCCACCGCCGCCGCTATCACTGGACGGAGTCACCTAGTGCAG,8420 fluorescence intensity (a.u.)
3,TGGCACTGTAGTCCTTCCTCAGCTCCACATACCACCATCTCGGAGTCACCTAGTGCAG,10500 fluorescence intensity (a.u.)
4,CCTGACATTCCATTGTGTTTCTTACGTATAACCCCTCGTACGGAGTCACCTAGTGCAG,10200 fluorescence intensity (a.u.)
5,GGTGGTTGGTAGCTCGGCGGCGGCGGGATCTTCTTCTTGCCGGAGTCACCTAGTGCAG,11300 fluorescence intensity (a.u.)
6,CTAGAAGACACAGAAGCCCATCTTGCCATCCATAGTCATCCGGAGTCACCTAGTGCAG,8080 fluorescence intensity (a.u.)
7,GTGATCCCTTTCTTCTCATGGGCTCATACCATCAATCACACGGAGTCACCTAGTGCAG,8040 fluorescence intensity (a.u.)
8,CCTATATACCCACCTCTCTCATCTTTCAATGTTTATTGACCGGAGTCACCTAGTGCAG,9420 fluorescence intensity (a.u.)
9,TCTTTCATTTCTCGTGGGAAGAGCTCTTTTTTCTTTCATTCGGAGTCACCTAGTGCAG,8280 fluorescence intensity (a.u.)
10,GGTGATCACTAGGCTGTCAATGGGGTGGTAGGGTGGCATGCGGAGTCACCTAGTGCAG,10400 fluorescence intensity (a.u.)
11,ATTGCGCGTGGCGGAGGGGAAGAGGGAGGGGAGGGTGGCGCGGAGTCACCTAGTGCAG,16100 fluorescence intensity (a.u.)
12,CTCTACTATCGATCTTTTTTCCACGTCGGTCGCGGCTTTTCGGAGTCACCTAGTGCAG,9580 fluorescence intensity (a.u.)
13,GTACTTCTTCGCTCCGTCGTTCATAATATTCGTTTTTTCACGGAGTCACCTAGTGCAG,10100 fluorescence intensity (a.u.)
14,CCGCTGCCTGCTTTTGGATATGGTCTCTATCATCCACTTCCGGAGTCACCTAGTGCAG,11000 fluorescence intensity (a.u.)
15,GCCTTACATTTCCTTTCTTTCGTCTGCAATTTTTGGGACTCGGAGTCACCTAGTGCAG,11900 fluorescence intensity (a.u.)
16,CTCCCTGCGTGTGGTTCAGGTGCTGAAGGTGATATTCAGACGGAGTCACCTAGTGCAG,9190 fluorescence intensity (a.u.)
17,AAAGCCTCCGCATTGACTCCTCGGCCCCTATTGCGTCACTCGGAGTCACCTAGTGCAG,8400 fluorescence intensity (a.u.)
18,CATTTACATTTGATCTGTTCCATCATTGACAACTGCTAATCGGAGTCACCTAGTGCAG,8030 fluorescence intensity (a.u.)
19,GTTGGCATGTATCCACATGTTGGTCACTGCTACGAGCATTCGGAGTCACCTAGTGCAG,8770 fluorescence intensity (a.u.)
20,TTCAGTTTTTGCTTGCAACGTTTGACCACTCGTCTTATTCCGGAGTCACCTAGTGCAG,15600 fluorescence intensity (a.u.)
21,TATCTGTGTCTGTGTGTGCACTGTGGCACGCGTGCACGCACGGAGTCACCTAGTGCAG,8090 fluorescence intensity (a.u.)

row,Sequence,binding signal
1,ATTTTCTTGGGGTCGTTTATAAATTAAATTTTAGGCTTGGCGGAGTCACCTAGTGCAG,8460 fluorescence intensity (a.u.)
2,CTCACTTCACTCCACTCCACTCCACCGTTTCCCCGTTTCCCGGAGTCACCTAGTGCAG,9440 fluorescence intensity (a.u.)
3,TCCTACGTCTCCGCCCATGTCCTGCTCTACGGGCTGACGACGGAGTCACCTAGTGCAG,8240 fluorescence intensity (a.u.)
4,TTTCTCACTGTTATATTGTCTAATATCATCTTTCTCTTTTCGGAGTCACCTAGTGCAG,9880 fluorescence intensity (a.u.)
5,TGTTTTTTCCTTTTTTTTTCTTTTCTTTTTCTCTCTTCCCCGGAGTCACCTAGTGCAG,8200 fluorescence intensity (a.u.)
6,ATCCCACACATAGCAACCACTATCTATTTATTTTACTACCCGGAGTCACCTAGTGCAG,9040 fluorescence intensity (a.u.)
7,TATTATCCAAAGTACTTTAAACGCAACTTTTCATTTTTTACGGAGTCACCTAGTGCAG,8790 fluorescence intensity (a.u.)
8,CTTGTTTTCAATGTTTTCATAGTTTGATCCGCACTGTATTCGGAGTCACCTAGTGCAG,11000 fluorescence intensity (a.u.)
9,TGAAATTGGGTATCCTAGCTGCATCAAACACTCTCATCTACGGAGTCACCTAGTGCAG,10200 fluorescence intensity (a.u.)
10,GTTACATTTTTAGTCCTCATCCCTTGTTTGGTTTCACATCCGGAGTCACCTAGTGCAG,11400 fluorescence intensity (a.u.)
11,GCATTGAGGTCGACATGGACATACCTTTCCTTTGGGTTGCCGGAGTCACCTAGTGCAG,8490 fluorescence intensity (a.u.)
12,CACGCCAACCTCGCATCTCTCTCTCACCTCTGCTCCAATCCGGAGTCACCTAGTGCAG,8900 fluorescence intensity (a.u.)
13,ACCTCTCTCATTCGTTTTCCACGTACACGCTTTTTAAATTCGGAGTCACCTAGTGCAG,10200 fluorescence intensity (a.u.)
14,ATGATGGCTTTTCCAGCAGCTGCTCCAGTTCCTGTCGGGACGGAGTCACCTAGTGCAG,9240 fluorescence intensity (a.u.)
15,GGCGTTGCTGCTGCTAGCTGTTGTTGTTGGGCATCGTTCTCGGAGTCACCTAGTGCAG,10500 fluorescence intensity (a.u.)
16,CCCATCATCGCGCGCGTTTTCGCGTACAATTTGGTACTCCCGGAGTCACCTAGTGCAG,10200 fluorescence intensity (a.u.)
17,GTCATTTCGGCCTATATCGGCCTCTATGGTTTCCAAATTCCGGAGTCACCTAGTGCAG,8540 fluorescence intensity (a.u.)
18,GTGTTTCCCATGGTTTGCACCAGTCTCCTCTGATGCAGTCCGGAGTCACCTAGTGCAG,26400 fluorescence intensity (a.u.)
19,ACTGTTGGAGTGGGAGTGGGGAATTCTAGGGTTTTGCAATCGGAGTCACCTAGTGCAG,12300 fluorescence intensity (a.u.)
20,ACTAGGCTATAGACCCGTTCGTTATCCATTCTTAGTTTCACGGAGTCACCTAGTGCAG,9510 fluorescence intensity (a.u.)
21,AGGCTTTCGCTATGACTTGTCCCCTGGAAAGGTCTATTTACGGAGTCACCTAGTGCAG,8110 fluorescence intensity (a.u.)

# Exported with bars between the fields: entries from further up
row | Sequence | binding signal
19 | ACTGTTGGAGTGGGAGTGGGGAATTCTAGGGTTTTGCAATCGGAGTCACCTAGTGCAG | 12300 fluorescence intensity (a.u.)
20 | ACTAGGCTATAGACCCGTTCGTTATCCATTCTTAGTTTCACGGAGTCACCTAGTGCAG | 9510 fluorescence intensity (a.u.)
